Test results from doi:10.1101/2025.04.12.648529.
No constants are given. Whether binding was seen depends on the method and setting. In cells and extracts the contact can be indirect. Some entries that bind do so weakly or less than the wild type.

Sequences of proteins named here, by UniProt entry; tags and fusion partners are left off.
UniProt Q1XH10: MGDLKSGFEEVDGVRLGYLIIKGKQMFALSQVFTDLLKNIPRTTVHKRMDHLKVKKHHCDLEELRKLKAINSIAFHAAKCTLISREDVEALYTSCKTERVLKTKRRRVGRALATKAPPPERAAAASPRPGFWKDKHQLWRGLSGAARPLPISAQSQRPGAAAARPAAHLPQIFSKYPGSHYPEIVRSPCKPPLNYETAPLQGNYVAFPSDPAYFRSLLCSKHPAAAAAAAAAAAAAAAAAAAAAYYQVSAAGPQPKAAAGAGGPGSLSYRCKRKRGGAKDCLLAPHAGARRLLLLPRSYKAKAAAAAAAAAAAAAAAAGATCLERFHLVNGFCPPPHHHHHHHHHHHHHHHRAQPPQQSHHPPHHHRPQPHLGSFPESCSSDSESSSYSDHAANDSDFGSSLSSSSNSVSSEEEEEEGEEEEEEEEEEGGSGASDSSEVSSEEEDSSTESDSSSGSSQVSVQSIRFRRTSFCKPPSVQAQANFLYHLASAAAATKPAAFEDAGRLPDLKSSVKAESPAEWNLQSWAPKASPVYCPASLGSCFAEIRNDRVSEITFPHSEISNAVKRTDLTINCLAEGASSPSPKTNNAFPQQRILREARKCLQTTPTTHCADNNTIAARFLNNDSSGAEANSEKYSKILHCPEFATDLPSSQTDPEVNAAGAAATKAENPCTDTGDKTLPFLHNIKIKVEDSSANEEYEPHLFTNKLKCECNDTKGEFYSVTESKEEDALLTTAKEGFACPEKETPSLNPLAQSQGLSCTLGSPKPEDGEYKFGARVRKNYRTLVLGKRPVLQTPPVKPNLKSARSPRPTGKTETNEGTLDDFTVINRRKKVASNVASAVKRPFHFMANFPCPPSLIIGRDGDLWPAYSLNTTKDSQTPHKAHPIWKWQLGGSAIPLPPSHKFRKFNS
UniProt Q15022: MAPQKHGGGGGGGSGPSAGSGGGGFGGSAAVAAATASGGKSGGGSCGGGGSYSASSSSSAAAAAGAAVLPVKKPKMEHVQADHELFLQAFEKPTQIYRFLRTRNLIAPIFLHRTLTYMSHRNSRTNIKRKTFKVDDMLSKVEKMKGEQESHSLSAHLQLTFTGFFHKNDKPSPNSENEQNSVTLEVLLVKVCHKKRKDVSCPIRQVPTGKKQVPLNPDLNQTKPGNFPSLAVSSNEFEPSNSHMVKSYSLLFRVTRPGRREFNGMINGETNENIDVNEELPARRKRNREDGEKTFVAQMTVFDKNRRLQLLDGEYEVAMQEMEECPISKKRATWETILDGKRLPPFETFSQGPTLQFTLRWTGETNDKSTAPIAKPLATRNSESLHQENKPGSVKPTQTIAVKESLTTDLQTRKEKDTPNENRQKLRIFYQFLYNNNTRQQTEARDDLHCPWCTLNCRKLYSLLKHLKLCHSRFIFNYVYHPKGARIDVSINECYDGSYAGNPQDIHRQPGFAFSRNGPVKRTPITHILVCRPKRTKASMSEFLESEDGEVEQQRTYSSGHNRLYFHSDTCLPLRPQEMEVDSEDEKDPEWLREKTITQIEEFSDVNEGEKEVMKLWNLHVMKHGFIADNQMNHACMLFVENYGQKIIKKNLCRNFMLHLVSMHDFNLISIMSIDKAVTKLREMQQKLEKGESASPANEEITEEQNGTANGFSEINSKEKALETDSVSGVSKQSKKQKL
UniProt Q9Y483: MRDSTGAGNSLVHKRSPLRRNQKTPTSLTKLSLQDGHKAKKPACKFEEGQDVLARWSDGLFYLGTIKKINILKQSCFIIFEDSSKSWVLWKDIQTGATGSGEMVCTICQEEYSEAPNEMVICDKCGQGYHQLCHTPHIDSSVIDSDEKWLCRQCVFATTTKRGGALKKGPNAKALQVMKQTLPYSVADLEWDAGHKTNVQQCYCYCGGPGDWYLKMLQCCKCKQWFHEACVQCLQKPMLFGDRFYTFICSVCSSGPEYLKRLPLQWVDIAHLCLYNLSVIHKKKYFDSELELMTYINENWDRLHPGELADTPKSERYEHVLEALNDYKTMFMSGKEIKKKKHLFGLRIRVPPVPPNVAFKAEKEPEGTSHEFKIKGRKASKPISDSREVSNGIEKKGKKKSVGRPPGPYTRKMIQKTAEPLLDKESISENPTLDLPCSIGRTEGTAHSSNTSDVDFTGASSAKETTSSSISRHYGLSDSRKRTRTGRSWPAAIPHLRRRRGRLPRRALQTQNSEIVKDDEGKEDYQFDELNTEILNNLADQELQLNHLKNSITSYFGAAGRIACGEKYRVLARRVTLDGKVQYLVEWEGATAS

Target: SKIDA1-3xFLAG (UniProt Q1XH10)
Assay: co-IP

Row | Substance | binding
1 | SUZ12 (from UniProt Q15022 1-739) | binds weakly
2 | MTF2 (from UniProt Q9Y483 1-593) | binds weakly
